According to article PMC10905933:
These are yes or no findings as the source states them, for the method shown. In cells and extracts the contact can be indirect. Some binding calls cover weakened binding; strength is not graded here.

Protein sequences, listed by entry. Tags and fused reporters are not part of them.
UniProt Q92793: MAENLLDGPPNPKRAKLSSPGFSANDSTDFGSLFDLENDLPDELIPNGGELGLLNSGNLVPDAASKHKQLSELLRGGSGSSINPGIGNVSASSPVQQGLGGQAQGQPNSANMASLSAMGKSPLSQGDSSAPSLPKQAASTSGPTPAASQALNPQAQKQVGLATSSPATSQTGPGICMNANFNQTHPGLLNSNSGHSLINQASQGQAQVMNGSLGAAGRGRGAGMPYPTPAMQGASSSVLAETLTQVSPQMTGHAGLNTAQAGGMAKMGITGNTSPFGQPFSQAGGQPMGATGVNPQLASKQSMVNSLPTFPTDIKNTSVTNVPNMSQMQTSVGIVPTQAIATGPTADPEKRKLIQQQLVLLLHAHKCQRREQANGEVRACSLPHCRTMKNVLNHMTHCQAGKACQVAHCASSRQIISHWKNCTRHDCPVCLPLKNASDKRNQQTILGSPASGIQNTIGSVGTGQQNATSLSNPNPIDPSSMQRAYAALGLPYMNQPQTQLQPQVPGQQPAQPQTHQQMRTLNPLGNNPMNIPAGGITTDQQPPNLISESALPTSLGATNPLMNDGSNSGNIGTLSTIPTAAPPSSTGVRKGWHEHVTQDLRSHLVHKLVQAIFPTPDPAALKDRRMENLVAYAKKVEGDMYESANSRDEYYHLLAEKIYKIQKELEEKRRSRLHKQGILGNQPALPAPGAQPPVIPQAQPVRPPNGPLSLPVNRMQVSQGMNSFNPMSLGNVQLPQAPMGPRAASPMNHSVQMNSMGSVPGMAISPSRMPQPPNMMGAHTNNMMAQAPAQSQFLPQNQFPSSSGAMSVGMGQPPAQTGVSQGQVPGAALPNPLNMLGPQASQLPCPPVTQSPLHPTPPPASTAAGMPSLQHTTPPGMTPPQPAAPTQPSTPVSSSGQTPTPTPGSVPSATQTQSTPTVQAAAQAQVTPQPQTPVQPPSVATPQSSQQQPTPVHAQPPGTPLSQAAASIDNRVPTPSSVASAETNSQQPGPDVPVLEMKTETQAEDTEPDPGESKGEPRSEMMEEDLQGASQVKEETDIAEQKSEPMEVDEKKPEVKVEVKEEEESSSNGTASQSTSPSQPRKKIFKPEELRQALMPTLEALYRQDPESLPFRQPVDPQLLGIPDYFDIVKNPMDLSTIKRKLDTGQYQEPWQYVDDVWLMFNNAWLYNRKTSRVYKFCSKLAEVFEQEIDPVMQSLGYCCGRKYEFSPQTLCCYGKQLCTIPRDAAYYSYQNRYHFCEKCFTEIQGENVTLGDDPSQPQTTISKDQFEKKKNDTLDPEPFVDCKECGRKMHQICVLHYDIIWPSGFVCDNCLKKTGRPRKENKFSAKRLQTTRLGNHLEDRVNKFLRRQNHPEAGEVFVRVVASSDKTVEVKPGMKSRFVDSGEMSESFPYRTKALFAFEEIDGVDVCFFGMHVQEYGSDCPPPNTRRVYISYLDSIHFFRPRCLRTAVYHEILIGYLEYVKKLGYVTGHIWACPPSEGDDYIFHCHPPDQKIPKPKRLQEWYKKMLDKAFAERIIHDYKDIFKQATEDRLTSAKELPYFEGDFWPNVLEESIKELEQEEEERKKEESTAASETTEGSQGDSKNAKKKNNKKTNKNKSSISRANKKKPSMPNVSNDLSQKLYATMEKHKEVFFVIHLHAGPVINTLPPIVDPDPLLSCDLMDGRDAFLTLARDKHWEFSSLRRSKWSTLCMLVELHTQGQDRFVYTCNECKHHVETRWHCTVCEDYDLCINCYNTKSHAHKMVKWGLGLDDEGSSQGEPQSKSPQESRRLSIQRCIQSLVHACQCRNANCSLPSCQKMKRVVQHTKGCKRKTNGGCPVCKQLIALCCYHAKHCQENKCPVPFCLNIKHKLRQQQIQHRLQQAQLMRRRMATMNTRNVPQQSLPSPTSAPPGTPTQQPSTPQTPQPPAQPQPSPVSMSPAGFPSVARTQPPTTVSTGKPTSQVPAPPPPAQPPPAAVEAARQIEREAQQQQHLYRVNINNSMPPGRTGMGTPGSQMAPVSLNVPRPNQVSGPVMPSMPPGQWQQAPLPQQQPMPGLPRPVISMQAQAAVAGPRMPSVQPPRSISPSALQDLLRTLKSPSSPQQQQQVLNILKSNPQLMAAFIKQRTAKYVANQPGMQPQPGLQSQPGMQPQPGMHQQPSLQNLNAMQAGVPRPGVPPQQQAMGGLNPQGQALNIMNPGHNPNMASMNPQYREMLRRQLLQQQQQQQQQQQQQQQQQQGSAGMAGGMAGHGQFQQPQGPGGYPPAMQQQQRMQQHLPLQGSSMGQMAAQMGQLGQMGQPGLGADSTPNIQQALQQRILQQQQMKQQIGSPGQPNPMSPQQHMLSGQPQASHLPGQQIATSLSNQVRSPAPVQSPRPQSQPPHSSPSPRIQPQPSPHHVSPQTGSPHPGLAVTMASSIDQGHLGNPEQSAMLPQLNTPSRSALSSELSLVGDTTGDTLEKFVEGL

Molecular target: T1, phosphorylated STAT4 (pSTAT4) (human (endogenous in PC3 and DU145)) (UniProt Q14765)
T1 sequence (chain, phosphorylated (site not printed)): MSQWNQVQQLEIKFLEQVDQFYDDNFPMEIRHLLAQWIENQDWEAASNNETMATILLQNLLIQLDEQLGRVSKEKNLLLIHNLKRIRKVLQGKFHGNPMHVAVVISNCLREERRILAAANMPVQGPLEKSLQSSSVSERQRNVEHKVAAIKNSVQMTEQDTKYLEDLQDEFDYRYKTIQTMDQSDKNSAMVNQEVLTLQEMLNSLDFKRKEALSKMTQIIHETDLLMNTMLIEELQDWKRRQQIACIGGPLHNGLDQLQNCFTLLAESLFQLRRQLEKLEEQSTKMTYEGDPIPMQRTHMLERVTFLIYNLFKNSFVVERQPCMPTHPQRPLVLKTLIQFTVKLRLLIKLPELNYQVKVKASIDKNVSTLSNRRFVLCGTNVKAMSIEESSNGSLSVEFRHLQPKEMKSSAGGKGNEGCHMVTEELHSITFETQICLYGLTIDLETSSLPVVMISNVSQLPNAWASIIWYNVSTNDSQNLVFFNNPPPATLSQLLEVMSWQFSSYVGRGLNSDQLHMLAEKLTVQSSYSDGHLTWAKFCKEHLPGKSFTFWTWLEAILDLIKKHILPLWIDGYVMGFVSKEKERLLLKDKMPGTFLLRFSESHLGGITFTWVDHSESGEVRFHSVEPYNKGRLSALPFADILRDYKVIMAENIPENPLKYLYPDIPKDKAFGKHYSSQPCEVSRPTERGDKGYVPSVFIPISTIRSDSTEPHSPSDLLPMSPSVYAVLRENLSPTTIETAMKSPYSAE
Test: co-IP; coimmunoprecipitation in PC3 and DU145 cells, Western blot, IgG as a control; which protein was precipitated is not told

binding: binds
Substance: CREB-binding protein (CBP) (from UniProt Q92793 1-2442)
